Some of the results follow.

Amino acid sequences for entries named in this document (tags omitted). A change or cut given only in a name is not applied to a line headed by its entry.
UniProt Q6ZS17: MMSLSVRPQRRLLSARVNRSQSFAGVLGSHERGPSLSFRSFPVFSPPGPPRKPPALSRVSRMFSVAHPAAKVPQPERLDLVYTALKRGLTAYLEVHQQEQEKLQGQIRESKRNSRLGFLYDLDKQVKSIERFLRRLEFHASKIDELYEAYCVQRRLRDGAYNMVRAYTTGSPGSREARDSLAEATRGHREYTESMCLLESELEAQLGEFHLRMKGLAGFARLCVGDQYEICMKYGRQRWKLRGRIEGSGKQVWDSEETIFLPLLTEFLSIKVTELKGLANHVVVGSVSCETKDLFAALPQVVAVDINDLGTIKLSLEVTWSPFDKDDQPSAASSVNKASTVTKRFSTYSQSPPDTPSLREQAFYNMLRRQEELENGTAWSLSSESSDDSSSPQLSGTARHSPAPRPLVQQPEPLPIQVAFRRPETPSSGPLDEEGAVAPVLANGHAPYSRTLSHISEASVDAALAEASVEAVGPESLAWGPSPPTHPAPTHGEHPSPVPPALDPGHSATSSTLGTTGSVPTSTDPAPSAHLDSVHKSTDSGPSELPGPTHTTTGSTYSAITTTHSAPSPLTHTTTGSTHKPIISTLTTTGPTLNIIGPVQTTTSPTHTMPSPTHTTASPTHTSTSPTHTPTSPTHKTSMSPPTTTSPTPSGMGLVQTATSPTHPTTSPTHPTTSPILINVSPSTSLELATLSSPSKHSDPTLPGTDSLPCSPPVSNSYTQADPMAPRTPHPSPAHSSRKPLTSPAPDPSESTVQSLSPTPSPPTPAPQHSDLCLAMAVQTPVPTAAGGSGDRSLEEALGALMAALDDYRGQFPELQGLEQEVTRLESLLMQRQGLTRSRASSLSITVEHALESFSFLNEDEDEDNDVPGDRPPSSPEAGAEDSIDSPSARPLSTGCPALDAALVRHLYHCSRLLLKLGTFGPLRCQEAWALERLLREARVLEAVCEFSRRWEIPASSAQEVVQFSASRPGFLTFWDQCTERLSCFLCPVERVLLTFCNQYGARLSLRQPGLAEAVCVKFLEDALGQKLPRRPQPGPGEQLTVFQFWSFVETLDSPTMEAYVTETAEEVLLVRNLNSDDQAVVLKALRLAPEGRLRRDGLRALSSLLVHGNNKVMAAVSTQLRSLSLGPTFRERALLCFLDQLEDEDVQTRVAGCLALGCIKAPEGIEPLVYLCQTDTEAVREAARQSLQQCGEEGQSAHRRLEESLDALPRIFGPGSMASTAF
UniProt Q5EBL4: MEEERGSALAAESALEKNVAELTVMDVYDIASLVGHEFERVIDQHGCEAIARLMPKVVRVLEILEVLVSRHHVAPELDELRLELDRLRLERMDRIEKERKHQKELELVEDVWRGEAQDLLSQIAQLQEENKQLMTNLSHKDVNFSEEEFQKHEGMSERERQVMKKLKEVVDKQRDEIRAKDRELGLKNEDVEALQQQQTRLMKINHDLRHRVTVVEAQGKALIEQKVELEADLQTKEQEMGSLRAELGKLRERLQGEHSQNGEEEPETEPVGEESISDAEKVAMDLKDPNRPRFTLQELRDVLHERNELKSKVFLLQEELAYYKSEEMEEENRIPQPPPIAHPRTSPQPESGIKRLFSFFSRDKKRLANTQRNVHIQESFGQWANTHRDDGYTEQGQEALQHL
UniProt O43566: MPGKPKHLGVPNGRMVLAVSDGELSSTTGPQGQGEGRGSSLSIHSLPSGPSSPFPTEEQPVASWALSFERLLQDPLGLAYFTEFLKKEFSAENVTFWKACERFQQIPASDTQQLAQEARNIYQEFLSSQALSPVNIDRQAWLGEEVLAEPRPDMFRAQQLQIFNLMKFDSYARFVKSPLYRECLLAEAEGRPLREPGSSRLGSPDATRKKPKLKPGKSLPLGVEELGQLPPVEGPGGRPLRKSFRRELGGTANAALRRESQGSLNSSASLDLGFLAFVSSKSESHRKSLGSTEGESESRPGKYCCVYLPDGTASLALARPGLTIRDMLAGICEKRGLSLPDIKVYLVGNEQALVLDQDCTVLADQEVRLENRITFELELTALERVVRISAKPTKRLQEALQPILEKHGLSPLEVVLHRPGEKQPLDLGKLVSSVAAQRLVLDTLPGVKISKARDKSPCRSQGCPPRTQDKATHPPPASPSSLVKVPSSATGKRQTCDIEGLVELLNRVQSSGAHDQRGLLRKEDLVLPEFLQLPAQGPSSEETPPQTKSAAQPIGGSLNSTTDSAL
UniProt Q96GF1: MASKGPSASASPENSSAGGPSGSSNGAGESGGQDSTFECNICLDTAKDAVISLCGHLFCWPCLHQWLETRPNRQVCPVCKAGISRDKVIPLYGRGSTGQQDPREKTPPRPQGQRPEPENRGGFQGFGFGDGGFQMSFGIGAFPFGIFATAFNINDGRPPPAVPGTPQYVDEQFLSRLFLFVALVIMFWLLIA
UniProt Q9P260: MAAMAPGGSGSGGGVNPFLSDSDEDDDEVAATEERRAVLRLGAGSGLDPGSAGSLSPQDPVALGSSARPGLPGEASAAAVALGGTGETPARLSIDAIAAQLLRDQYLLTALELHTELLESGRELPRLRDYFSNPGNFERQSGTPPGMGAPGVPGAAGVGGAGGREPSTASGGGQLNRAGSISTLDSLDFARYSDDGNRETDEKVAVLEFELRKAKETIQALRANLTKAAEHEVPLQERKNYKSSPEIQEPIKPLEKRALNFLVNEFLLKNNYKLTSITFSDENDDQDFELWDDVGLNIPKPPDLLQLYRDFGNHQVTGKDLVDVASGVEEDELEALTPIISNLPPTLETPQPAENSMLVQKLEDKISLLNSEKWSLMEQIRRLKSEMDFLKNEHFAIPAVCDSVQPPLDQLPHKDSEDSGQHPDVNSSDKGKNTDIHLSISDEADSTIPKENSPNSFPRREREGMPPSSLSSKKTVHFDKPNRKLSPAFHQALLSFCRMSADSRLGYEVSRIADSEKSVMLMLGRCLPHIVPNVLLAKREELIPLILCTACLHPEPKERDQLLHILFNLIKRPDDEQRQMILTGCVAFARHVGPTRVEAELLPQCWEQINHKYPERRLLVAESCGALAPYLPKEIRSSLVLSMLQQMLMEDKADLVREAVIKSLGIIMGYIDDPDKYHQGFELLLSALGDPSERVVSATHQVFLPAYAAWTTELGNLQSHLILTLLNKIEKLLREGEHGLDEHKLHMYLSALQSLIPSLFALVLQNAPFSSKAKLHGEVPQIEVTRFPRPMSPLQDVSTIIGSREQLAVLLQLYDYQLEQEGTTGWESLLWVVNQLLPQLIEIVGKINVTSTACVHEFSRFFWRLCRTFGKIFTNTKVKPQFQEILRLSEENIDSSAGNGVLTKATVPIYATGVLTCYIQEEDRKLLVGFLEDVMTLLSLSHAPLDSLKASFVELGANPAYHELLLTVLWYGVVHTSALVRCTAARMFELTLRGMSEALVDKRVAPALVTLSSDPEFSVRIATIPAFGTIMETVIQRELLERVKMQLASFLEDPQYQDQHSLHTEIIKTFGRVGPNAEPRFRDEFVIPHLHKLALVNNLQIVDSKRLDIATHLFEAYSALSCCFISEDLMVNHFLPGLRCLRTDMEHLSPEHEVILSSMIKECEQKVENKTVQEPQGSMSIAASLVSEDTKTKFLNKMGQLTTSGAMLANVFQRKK
UniProt Q8IYW5, whole entry, looked up: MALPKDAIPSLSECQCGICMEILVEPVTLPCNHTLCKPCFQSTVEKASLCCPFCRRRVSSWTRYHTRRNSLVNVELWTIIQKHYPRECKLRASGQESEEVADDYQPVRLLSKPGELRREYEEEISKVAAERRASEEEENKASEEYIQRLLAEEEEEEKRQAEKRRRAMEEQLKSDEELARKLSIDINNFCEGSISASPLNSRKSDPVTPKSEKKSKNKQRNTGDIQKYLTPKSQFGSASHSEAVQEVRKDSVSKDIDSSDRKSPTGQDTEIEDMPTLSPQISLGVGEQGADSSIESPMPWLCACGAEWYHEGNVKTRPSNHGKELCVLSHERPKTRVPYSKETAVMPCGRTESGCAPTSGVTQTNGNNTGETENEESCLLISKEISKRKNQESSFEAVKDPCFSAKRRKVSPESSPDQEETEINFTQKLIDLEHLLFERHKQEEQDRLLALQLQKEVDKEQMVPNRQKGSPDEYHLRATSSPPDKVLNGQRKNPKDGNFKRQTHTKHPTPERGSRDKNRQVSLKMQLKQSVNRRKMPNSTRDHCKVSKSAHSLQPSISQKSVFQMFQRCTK
UniProt Q9Y256: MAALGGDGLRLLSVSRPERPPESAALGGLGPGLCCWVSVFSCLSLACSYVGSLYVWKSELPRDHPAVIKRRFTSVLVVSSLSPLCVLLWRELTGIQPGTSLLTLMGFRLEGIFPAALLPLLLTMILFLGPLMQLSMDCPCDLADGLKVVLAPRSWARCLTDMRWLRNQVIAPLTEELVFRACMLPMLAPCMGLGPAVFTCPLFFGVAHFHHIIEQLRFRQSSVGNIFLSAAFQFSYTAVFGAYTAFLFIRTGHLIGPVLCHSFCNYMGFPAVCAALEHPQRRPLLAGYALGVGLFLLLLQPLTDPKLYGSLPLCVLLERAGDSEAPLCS
UniProt Q92546: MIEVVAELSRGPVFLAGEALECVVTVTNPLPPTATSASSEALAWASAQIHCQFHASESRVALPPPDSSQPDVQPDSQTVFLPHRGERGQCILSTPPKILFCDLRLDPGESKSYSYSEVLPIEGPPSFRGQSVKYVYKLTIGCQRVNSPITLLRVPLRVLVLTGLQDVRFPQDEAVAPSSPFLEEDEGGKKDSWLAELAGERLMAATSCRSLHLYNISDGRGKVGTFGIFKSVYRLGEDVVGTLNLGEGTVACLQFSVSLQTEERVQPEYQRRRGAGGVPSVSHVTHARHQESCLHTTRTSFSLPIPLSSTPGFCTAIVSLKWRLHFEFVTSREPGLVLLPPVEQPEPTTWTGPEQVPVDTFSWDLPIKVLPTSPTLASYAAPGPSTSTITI
UniProt Q8WVD3: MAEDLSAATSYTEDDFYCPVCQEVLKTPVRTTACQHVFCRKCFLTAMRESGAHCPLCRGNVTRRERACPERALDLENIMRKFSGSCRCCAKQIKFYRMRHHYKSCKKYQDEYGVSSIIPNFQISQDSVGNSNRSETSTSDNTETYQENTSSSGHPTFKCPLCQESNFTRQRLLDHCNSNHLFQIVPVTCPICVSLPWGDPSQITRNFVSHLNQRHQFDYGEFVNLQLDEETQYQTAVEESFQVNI
UniProt P35251: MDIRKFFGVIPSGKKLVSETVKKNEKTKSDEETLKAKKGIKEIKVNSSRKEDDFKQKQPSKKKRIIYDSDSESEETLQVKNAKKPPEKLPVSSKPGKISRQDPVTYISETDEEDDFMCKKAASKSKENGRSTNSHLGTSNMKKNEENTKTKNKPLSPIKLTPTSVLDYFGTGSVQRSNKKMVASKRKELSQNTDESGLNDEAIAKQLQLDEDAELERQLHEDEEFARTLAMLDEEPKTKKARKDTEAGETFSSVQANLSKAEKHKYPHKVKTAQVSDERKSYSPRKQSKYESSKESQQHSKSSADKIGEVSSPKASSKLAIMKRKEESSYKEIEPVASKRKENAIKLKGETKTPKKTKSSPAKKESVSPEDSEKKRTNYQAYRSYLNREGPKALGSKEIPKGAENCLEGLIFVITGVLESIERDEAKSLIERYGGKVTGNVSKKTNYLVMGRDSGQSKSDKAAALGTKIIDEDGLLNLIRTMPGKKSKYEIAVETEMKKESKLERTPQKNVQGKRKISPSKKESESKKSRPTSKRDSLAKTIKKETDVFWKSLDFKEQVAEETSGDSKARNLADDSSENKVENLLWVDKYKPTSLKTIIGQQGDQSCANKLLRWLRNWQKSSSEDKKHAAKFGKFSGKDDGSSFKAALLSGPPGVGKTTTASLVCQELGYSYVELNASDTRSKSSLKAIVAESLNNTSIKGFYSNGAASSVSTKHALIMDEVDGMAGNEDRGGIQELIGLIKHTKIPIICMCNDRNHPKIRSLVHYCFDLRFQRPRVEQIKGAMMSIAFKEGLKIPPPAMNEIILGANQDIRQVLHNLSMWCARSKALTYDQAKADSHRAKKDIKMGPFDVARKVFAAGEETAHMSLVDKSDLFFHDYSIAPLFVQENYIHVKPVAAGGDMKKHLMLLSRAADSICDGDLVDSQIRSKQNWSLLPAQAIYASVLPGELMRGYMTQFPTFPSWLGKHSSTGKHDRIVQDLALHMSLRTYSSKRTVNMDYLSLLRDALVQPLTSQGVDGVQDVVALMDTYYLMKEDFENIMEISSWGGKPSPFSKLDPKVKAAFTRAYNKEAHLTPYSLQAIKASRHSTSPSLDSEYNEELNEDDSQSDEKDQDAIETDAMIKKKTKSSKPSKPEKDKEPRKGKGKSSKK
UniProt Q96A37: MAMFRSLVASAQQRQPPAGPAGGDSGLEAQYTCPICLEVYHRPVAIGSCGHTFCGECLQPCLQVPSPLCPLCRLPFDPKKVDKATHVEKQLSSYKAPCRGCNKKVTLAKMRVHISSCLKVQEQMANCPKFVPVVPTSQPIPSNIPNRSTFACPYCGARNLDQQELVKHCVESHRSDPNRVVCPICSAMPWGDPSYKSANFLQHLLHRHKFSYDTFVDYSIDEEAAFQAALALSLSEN

Compound in one assay: C1COCCN1CCN2C3=CC=CC=C3N=C2NC(=O)C4=CC(=CC=C4)[N+](=O)[O-] [IRAK-1-4 Inhibitor I]
Kind of assay: log2 fold change, soluble protein after heating vs DMSO (PISA); higher = thermal stabilisation; K562 cells, 10 uM, 30 min; active = over 0.2 and 3.5 SD of the protein, either way, in both replicates (recomputed). A digest of the protocol: (§1)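 K562 cells at 2×10^6 cells/mL were given 10 μM compound for 30 min. Aliquots then went through 3 min of heating across 48°C-58°C, were pooled, and were extracted in PBS with 0.5% NP-40 at 4°C, and the supernatant after 21,000xg for 90 min was quantified by TMTpro 16plex LC-MS/MS with channel sums equalised. Thermal stability relative to control samples, from duplicates, is given as log2 fold change.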
Consider RIC8B isoform 1 (UniProt Q9NVN3), for which the log2 fold change was inactive: 0.15.
Same read-out and setting: the result for RBM6 (UniProt P78332) reads inactive: 0.146.
Consider RIPOR1 isoform 4 (UniProt Q6ZS17), for which the log2 fold change was inactive: 0.028.
Consider RIT1 isoform 3 (UniProt Q92963), for which the log2 fold change is inactive: -0.049.
Regarding RNF111 isoform 3 (UniProt Q6ZNA4), the log2 fold change was inactive: 0.105.
As for RMDN2 isoform 2 (UniProt Q96LZ7), the log2 fold change was inactive: 0.034.
As to RILPL1 (UniProt Q5EBL4), the log2 fold change was inactive: 0.036.
Same read-out and setting: the result for RNF11 (UniProt Q9Y3C5) reads inactive: 0.047.

Compound in a further assay: C=CC(=O)N1CCC[C@@H](n2nc(-c3ccc(Oc4ccccc4)cc3)c3c(N)ncnc32)C1 [ibrutinib]
The description is as above. A digest of the protocol: as §1
In the case of RGS14 (UniProt O43566), the log2 fold change was inactive: 0.
On the same count and under the same terms, the result for RNF185 (UniProt Q96GF1) reads inactive: 0.045; that for RCBTB1 (UniProt Q8NDN9), inactive: 0.022; that for RELCH isoform 2 (UniProt Q9P260), inactive: 0.002.
Regarding RFX3 (UniProt P48380), the log2 fold change is inactive: -0.174.
Take RNF168 (UniProt Q8IYW5): the log2 fold change is inactive: -0.01.
RCE1 (UniProt Q9Y256): the log2 fold change is inactive: -0.015.
On the same count and under the same terms, for RGP1 (UniProt Q92546) the value was inactive: 0.081.
Turning to RNF138 (UniProt Q8WVD3), the log2 fold change is inactive: -0.032.
On to RGCC (UniProt Q9H4X1), for which the log2 fold change is inactive: -0.056.

Compound in the next assay: CC(=O)c1cnc2ccc(-c3cc(Cl)c(O)c(Cl)c3)nc2c1N[C@H]1CC[C@H](CN(C)C)CC1
The assay is described as above. The method, boiled down:
as §1
Regarding RHOXF2B (UniProt P0C7M4), the log2 fold change is inactive: -0.052.
Take RLIM (UniProt Q9NVW2): the log2 fold change is inactive: 0.13.
On the same count and under the same terms, for RBM6 (UniProt P78332) the value was inactive: -0.208; for RGS14 (UniProt O43566), inactive: -0.23.
For RNF185 (UniProt Q96GF1), the log2 fold change is inactive: 0.087.
In the case of RGN (UniProt Q15493), the log2 fold change is inactive: 0.047.
RICTOR isoform 3 (UniProt Q6R327): the log2 fold change is active: 0.866.
The same measure, in the same setting: the result for RELCH isoform 2 (UniProt Q9P260) reads inactive: -0.036; that for RFC1 (UniProt P35251), inactive: 0.071.
The same measure, in the same setting: the result for RFWD3 (UniProt Q6PCD5) reads inactive: 0.084; that for RMI2 (UniProt Q96E14), inactive: 0.062; that for RNASE7 (UniProt Q9H1E1), inactive: -0.272.
Turning to RNF168 (UniProt Q8IYW5), the log2 fold change is inactive: -0.124.
On to RCE1 (UniProt Q9Y256), for which the log2 fold change is inactive: 0.041.
As for RNF220 isoform 3 (UniProt Q5VTB9), the log2 fold change was inactive: 0.086.
As for RGP1 (UniProt Q92546), the log2 fold change was inactive: -0.072.
As for RNF138 (UniProt Q8WVD3), the log2 fold change is inactive: -0.31.
On the same count and under the same terms, for RNF166 (UniProt Q96A37) the value was inactive: 0.107; for RCL1 (UniProt Q5VZU2), inactive: -0.05.
In the case of RGCC (UniProt Q9H4X1), the log2 fold change is inactive: -0.156.

Compound in the next assay: CC(C)(C)Cn1c(N)nc2ccc(-c3[nH]c(C(C)(C)C)nc3-c3ccc(F)cc3)nc21 [ralimetinib]
The assay is described as above. A digest of the protocol: as §1
As for RLIM (UniProt Q9NVW2), the log2 fold change is inactive: 0.215.
The same measure, in the same setting: the result for RGS14 (UniProt O43566) reads inactive: 0.056; that for RIPOR1 isoform 4 (UniProt Q6ZS17), inactive: 0.057.
For the target RNASEL (UniProt Q05823), the log2 fold change was inactive: 0.183.
On the same count and under the same terms, the result for RNF185 (UniProt Q96GF1) reads inactive: -0.04; that for RBM7 (UniProt Q9Y580), inactive: 0.077.
Still for that read-out and setting: for RMDN2 isoform 2 (UniProt Q96LZ7) the value was inactive: 0.095; for RELCH isoform 2 (UniProt Q9P260), inactive: -0.347.
In the case of RFC1 (UniProt P35251), the log2 fold change was inactive: 0.1.
Still for that read-out and setting: the result for RMI2 (UniProt Q96E14) reads inactive: -0.094.
Take RILPL1 (UniProt Q5EBL4): the log2 fold change is inactive: -0.111.
Turning to RNF11 (UniProt Q9Y3C5), the log2 fold change was inactive: -0.065.
As to RNF168 (UniProt Q8IYW5), the log2 fold change is inactive: 0.084.
As to RCE1 (UniProt Q9Y256), the log2 fold change is inactive: -0.041.
For RGP1 (UniProt Q92546), the log2 fold change was inactive: -0.012.
Regarding RNF166 (UniProt Q96A37), the log2 fold change was inactive: 0.027.
Take RCL1 (UniProt Q5VZU2): the log2 fold change was inactive: -0.127.
In the case of RIF1 (UniProt Q5UIP0), the log2 fold change was inactive: 0.092.

Compound in another assay: CC(C)(O)CC(=O)NCCn1ccc2ncnc(Nc3ccc(Oc4cccc(C(F)(F)F)c4)c(Cl)c3)c21
The description is as above. A digest of the protocol: as §1
In the case of RIC8B isoform 1 (UniProt Q9NVN3), the log2 fold change was inactive: -0.187.
With RGS14 (UniProt O43566), the log2 fold change was inactive: 0.033.
RIPOR1 isoform 4 (UniProt Q6ZS17): the log2 fold change was inactive: -0.122.
RIT1 isoform 3 (UniProt Q92963): the log2 fold change was inactive: 0.099.
For the target RCBTB1 (UniProt Q8NDN9), the log2 fold change was inactive: -0.184.
On to RILPL2 (UniProt Q969X0), for which the log2 fold change was inactive: 0.
Still for that read-out and setting: for RBM7 (UniProt Q9Y580) the value was inactive: -0.098.
As to RICTOR isoform 3 (UniProt Q6R327), the log2 fold change was inactive: -0.084.
On the same count and under the same terms, the result for RELCH isoform 2 (UniProt Q9P260) reads inactive: -0.122.
With RFWD3 (UniProt Q6PCD5), the log2 fold change is inactive: 0.097.
Regarding RILPL1 (UniProt Q5EBL4), the log2 fold change is inactive: -0.075.
Consider RCE1 (UniProt Q9Y256), for which the log2 fold change is inactive: -0.129.
As to RFXANK (UniProt O14593), the log2 fold change was inactive: -0.198.
On the same count and under the same terms, the result for RGP1 (UniProt Q92546) reads inactive: -0.007; that for RC3H2 (UniProt Q9HBD1), inactive: 0.125; that for RNF138 (UniProt Q8WVD3), inactive: -0.036.
For the target RCL1 (UniProt Q5VZU2), the log2 fold change was inactive: -0.082.
The same measure, in the same setting: for RIF1 (UniProt Q5UIP0) the value was inactive: 0.15.
